Source: PubChem BioAssay AID720541 (National Center for Advancing Translational Sciences (NCATS), 2013)
In all, about 1,300 compounds went through this assay and about 420 (32%) were called active. This list was built around the results that the source calls inconclusive (neither active nor inactive); the mix of calls is not that of the screen. Calls follow the shape of the dose curve; as a rule, active = well fitted inhibition curve with a large enough effect; inconclusive = small, poorly fitted or top-dose-only effect; inactive = no such curve, though single readings can be large or run the other way. A potency beside an inconclusive call is a rough fit, not a confirmed value.

target: C-terminal-binding protein 1 (Homo sapiens) (UniProt Q13363); assay: qHTS for Inhibitors of the Phosphatase Activity of Eya2: Carboxyl-terminal binding protein (CtBP) Counterscreen for Cherry-picked Compounds; settings: purified protein-protein binding, AlphaScreen, 3 h; activity change, negative = inhibition: at 46.1 µM (top of the series); also: nearly all actives have a fitted effect of over 65% in size
Method in brief: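 Cherry-picked compounds (final 2.5 nM–46 uM) were incubated 2 h at RT with 25 nM CtBP-6xHIS and 25 nM GST-E1A. Alpha beads (20 ug/mL) were then added for 1 h, light-protected; DMSO and E1A peptide inhibitor wells set the normalization.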
% is scaled to controls: 0 for no effect and ±100 for the full control effect; potency is read from the fitted curve at half-maximal effect.

SMILES | Potency | activity change, negative = inhibition
COCc1nnc(NC(=O)c2ccc(S(=O)(=O)N3CCOCC3)cc2)o1 | inconclusive: 19 µM [inhibitor, single point] | –
CCC(=O)Nc1ccc(C(=O)COC(=O)c2nc3nccc(C)n3n2)cc1 | – | inactive: -5.45%
Cc1csc(NC(=O)c2cc(-c3ccco3)nc3ccccc23)n1 | inconclusive: 19 µM [inhibitor, single point] | –
O=c1cc(-c2ccccc2Cl)oc2c(NS(=O)(=O)c3ccccc3OC(F)(F)F)ccc(O)c12 | – | inactive: -22.3%
CN(C)c1ccc(/C=C/C=C2/C=Cc3ccccc32)cc1 | active: 5.36 µM | –
COc1cc(C(=O)Nc2cccc(NC(=O)c3cccs3)c2)cc(OC)c1OC | – | inactive: -26.5%
COc1ccc(NC(=O)c2ccc(CN3CCc4ccccc4C3)cc2)c(OC)c1 | – | inactive: -22.2%
O=C(Nc1ccccc1)C1=C(c2ccccc2)S(=O)(=O)CCS1(=O)=O | inconclusive: 21.3 µM [inhibitor, partial curve] | –
CCn1nc(C(=O)Nc2nc(-c3ccccn3)cs2)c2ccccc2c1=O | active: 3.79 µM | –
COc1ccc(N(C)S(=O)(=O)c2cccc(C(=O)Nc3nc4ccccc4[nH]3)c2)cc1 | inconclusive: 15.1 µM [inhibitor, single point] | –
NC(=O)c1nn2c(C(F)(F)F)cc(-c3ccccc3)nc2c1Br | active: 10.7 µM | –
COc1cc(NS(=O)(=O)c2ccc(NC(=S)NC(=O)/C=C/c3ccco3)cc2)ncn1 | inconclusive: 16.9 µM [inhibitor, single point] | –
Cc1c(OCC(=O)NCC2CCC(C(=O)O)CC2)ccc2c(-c3ccccc3)cc(=O)oc12 (stereo not given) | inconclusive: 15.1 µM [inhibitor, single point] | –
COc1ccccc1N1CCN(C(=O)c2ccc3c(=O)n4c(nc3c2)CCCCC4)CC1 | inconclusive: 15.1 µM [inhibitor, partial curve] | –
C[C@@]12CCC=C[C@H]1[C@H](c1ccc3ccccc3c1/C=C/c1ccccc1)N(Cc1ccccc1)C2=O | – | inactive: -18.8%
O=c1c(O)c(-c2ccc(O)cc2O)oc2cc(O)cc(O)c12 | inconclusive: 16.9 µM [inhibitor, single point] | –
O=C(CSc1ccc2nnc(-c3ccccn3)n2n1)Nc1ccccc1 | active: 10.7 µM | –
COc1ccc(C(CCNCc2ccc(N(C)C)cc2)C(C)C)cc1 (stereo not given) | active: 12 µM | –
Nc1nonc1C(=O)N/N=C/c1ccc(-c2cccc([N+](=O)[O-])c2)o1 | inconclusive: 6.01 µM [inhibitor, full curve] | –
CN(C)C(C)(C)C#CC(O)(c1ccccc1)c1ccccc1 | – | inactive: 4.16%
O=C(O)c1ccccc1-c1ccccc1C(=O)Nc1ccc2oc(=O)c3ccccc3c2c1 | active: 12 µM | –
O=C(O)c1c(Br)c(Br)c(Br)c(Br)c1C1c2ccc(O)cc2Oc2cc(O)ccc21 | inconclusive: 15.1 µM [inhibitor, single point] | –
O=C(Oc1ccc2c(c1)OCC2=O)c1ccccc1 | inconclusive: 30.1 µM [inhibitor, single point] | –

SMILES | Potency | activity change, negative = inhibition
COc1ccc(-n2cc3c(-c4cccc(Br)c4)nnc(C)c3n2)cc1 | inconclusive: 13.5 µM [inhibitor, partial curve] | –
Cn1nc(C(=O)Nc2ccc(Cl)c(S(=O)(=O)N3CCOCC3)c2)c2ccccc2c1=O | inconclusive: 19 µM [inhibitor, partial curve] | –
COc1ccccc1/C=C/C=N/N1CCN(Cc2cccc3ccccc23)CC1 | inconclusive: 10.7 µM [inhibitor, partial curve] | –
Cc1ccc(NC(=O)c2cc(=O)c3ccccc3o2)cc1S(=O)(=O)N1CCCCC1 | inconclusive: 3.01 µM [inhibitor, single point] | –
CCSc1nnc(-c2ccc(S(=O)(=O)N3CCOCC3)cc2)n1C | – | inactive: 12%
CCC(=O)Nc1nonc1-c1nc2ccccc2n1N(C(=O)CC)C(=O)CC | inconclusive: 15.1 µM [inhibitor, partial curve] | –
CN(C)c1ccc(/C=C/c2sc3ccccc3[n+]2Cc2ccccc2)cc1 | inconclusive: 15.1 µM [inhibitor, partial curve] | –
CCc1ccc2[nH]c3nc(SCC(=O)NCC4CCCO4)nnc3c2c1 (stereo not given) | active: 4.78 µM | –
N#Cc1nc(COc2ccc(Cl)cc2)oc1N1CCCCCC1 | inconclusive: 15.1 µM [inhibitor, partial curve] | –
CN(C)c1ccc(C(=C2C=CC(=[N+](C)C)C=C2)c2c(O)c(S(=O)(=O)[O-])cc3cc(S(=O)(=O)O)ccc23)cc1 | active: 9.53 µM | –
NC(=O)c1ccc(NC(=O)COC(=O)/C=C/c2ccc(Br)o2)cc1 | – | inactive: 3.02%
O=C(CNC(=O)c1ccc2ccccc2c1)Nc1ncccc1O | inconclusive: 16.9 µM [inhibitor, partial curve] | –
COc1ccc(-c2nc(N)ncc2-c2ccc(OC)c(OC)c2)c(O)c1 | – | inconclusive: -30.2% [inhibitor]
COC(=O)c1ccc2[nH]c3c(c2c1)CC(C)CC3 (stereo not given) | inconclusive: 30.1 µM [inhibitor, single point] | –
Cc1ccc(Nc2nc(NCCO)nc3c2cnn3C)cc1Cl | active: 7.57 µM | –
Cc1cc(NC(=O)CSc2nnnn2-c2ccccc2C)no1 | inconclusive: 13.5 µM [inhibitor, partial curve] | –
O=C(c1cccc(-n2cccc2)c1)N1CCN(S(=O)(=O)c2ccccc2)CC1 | – | inactive: -25.9%
Cc1c(NC(=O)/C(C#N)=C/c2ccc(-c3cc(Cl)ccc3Cl)o2)c(=O)n(-c2ccccc2)n1C | inconclusive: 4.78 µM [inhibitor, full curve] | –
Cc1cc(C(=O)COC(=O)c2cccnc2Cl)c(C)n1-c1c(C)n(C)n(-c2ccccc2)c1=O | – | inactive: -0.409%
COC(=O)c1ccc(OC(=O)c2cccs2)cc1 | inconclusive: 30.1 µM [inhibitor, single point] | –
CN1CCS/C1=C/C=C1/SC(=S)N(Cc2ccccc2)C1=O | inconclusive: 12 µM [inhibitor, partial curve] | –
CCc1nnc(NS(=O)(=O)c2ccc(NCc3cc(Cl)cc(Cl)c3O)cc2)s1 | active: 4.26 µM | –
